Experimental data: PubChem BioAssay AID1259308 (NCATS, 2017)
Aim: 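Genes whose loss raises luciferase production in HEK293 cells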 (primary screen). System: human HEK293 embryonic kidney cells stably expressing firefly luciferase (HEK-CMV-Luc2-Hygro). Reagents: single siRNA against human genes, 0.8 pmol siRNA per well. Duration: 72 h. Detection: 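Luciferase light (ONE-Glo) measured on one replicate plate set and viability (CellTiter-Glo) on the other, scaled to a negative control siRNA, with robust z-scores and luciferase per cell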. Scale: total luciferase, z-score and total luciferase, % of control: higher = more reporter protein produced. Active means: 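An siRNA counts as active if its total luciferase robust z-score exceeds 3; genes with two or more such siRNAs out of three were retested with fresh siRNAs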. Calls: active = raised luciferase; inactive = no rise.
Here is an unselected part of about 59,000 reagents. About 1,510 of them (2.6%) count as active. 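Calls use total luciferase alone and ignore viability, so some active siRNAs may act by altering cell number.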 The numbers tell different reagents against one gene apart. Further read-outs or replicates are left out here.

gene symbol	siRNA no.	total luciferase, z-score	total luciferase, % of control	activity call
TTC12	1	0.333	88.5	inactive
TTC12	2	0.137	84.6	inactive
TTC12	3	0.0558	83	inactive
ZNF613	1	0.0523	82.9	inactive
ZNF613	2	-0.849	65	inactive
ZNF613	3	-0.221	77.5	inactive
SOFU1	1	-0.0589	80.7	inactive
SOFU1	2	-0.621	69.5	inactive
SOFU1	3	2.24	126	inactive
LDB1	1	0.447	90.8	inactive
LDB1	2	2.47	131	inactive
LDB1	3	1.02	102	inactive
SLC45A2	1	-0.185	78.2	inactive
SLC45A2	2	-0.749	67	inactive
SLC45A2	3	-2.3	36.1	inactive
FUNDC2P2	1	0.871	99.2	inactive
FUNDC2P2	2	0.712	96	inactive
FUNDC2P2	3	0.212	86.1	inactive
RPS19BP1	1	-1.45	53	inactive
RPS19BP1	2	0.887	99.5	inactive
RPS19BP1	3	-1.81	45.9	inactive
MEGF10	1	0.545	92.7	inactive
MEGF10	2	-0.262	76.7	inactive
MEGF10	3	0.26	87.1	inactive
CCDC91	1	-0.617	69.6	inactive
CCDC91	2	4.34	168	active
CCDC91	3	-1.34	55.3	inactive
MAP4K3-DT	1	2.67	135	inactive
MAP4K3-DT	2	-0.589	70.2	inactive
MAP4K3-DT	3	0.94	101	inactive
POLN	1	0.612	94.1	inactive
POLN	2	1.12	104	inactive
POLN	3	-1.1	60.1	inactive
OR4A47	1	-0.725	67.5	inactive
OR4A47	2	-0.156	78.8	inactive
OR4A47	3	0.752	96.9	inactive

Copied from above (3 entries):
gene symbol	siRNA no.	total luciferase, z-score	total luciferase, % of control	activity call
LDB1	2	2.47	131	inactive
LDB1	3	1.02	102	inactive
SLC45A2	1	-0.185	78.2	inactive

More records follow:
gene symbol	siRNA no.	total luciferase, z-score	total luciferase, % of control	activity call
CRYZ	1	2.02	122	inactive
CRYZ	2	-0.464	72.7	inactive
CRYZ	3	0.234	86.5	inactive
SLC8A2	1	0.00337	82	inactive
SLC8A2	2	0.235	86.6	inactive
SLC8A2	3	0.28	87.5	inactive
DFFA	1	-0.452	72.9	inactive
DFFA	2	2.93	140	inactive
DFFA	3	-1.4	54.1	inactive
PRKD3	1	1.46	111	inactive
PRKD3	2	-0.754	66.9	inactive
PRKD3	3	-1.09	60.2	inactive
PNPLA10P	1	4.26	167	active
PNPLA10P	2	0.256	87	inactive
PNPLA10P	3	-0.333	75.3	inactive
LXN	1	1.52	112	inactive
LXN	2	3.33	148	active
LXN	3	-0.0601	80.7	inactive
ENSA	1	-0.75	67	inactive
ENSA	2	0.171	85.3	inactive
ENSA	3	0.482	91.5	inactive
